According to the supplement of paper PMC11006884:
The targets with a hit were mostly taken out for another list; the other results follow. The data scatter; read single values as rough. The list shows a part of the results, in another mix than the full data.

Sequences of proteins named here, by UniProt entry; tags and fusion partners are left off. A change or cut given only in a name is not applied to a line headed by its entry.
UniProt Q96T88: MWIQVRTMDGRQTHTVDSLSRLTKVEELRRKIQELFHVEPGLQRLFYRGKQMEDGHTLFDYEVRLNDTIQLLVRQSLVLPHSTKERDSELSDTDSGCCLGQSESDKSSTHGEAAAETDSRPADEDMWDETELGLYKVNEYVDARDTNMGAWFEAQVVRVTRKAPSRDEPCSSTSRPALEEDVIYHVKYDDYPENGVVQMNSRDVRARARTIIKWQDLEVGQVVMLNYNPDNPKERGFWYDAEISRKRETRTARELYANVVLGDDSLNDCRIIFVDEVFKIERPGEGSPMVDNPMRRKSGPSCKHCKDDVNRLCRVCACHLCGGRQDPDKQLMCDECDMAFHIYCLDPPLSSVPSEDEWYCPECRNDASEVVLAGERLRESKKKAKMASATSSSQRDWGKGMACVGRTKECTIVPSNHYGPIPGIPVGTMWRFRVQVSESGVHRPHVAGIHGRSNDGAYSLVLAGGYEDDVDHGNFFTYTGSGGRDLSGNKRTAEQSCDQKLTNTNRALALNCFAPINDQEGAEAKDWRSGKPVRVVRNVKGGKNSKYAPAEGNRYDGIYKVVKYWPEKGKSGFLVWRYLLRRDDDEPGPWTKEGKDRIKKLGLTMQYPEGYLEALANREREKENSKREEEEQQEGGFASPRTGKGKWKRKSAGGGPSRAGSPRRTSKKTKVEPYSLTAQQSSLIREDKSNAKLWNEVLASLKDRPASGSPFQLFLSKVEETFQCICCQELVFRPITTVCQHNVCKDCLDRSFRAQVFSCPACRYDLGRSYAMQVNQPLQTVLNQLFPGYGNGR
UniProt Q99459: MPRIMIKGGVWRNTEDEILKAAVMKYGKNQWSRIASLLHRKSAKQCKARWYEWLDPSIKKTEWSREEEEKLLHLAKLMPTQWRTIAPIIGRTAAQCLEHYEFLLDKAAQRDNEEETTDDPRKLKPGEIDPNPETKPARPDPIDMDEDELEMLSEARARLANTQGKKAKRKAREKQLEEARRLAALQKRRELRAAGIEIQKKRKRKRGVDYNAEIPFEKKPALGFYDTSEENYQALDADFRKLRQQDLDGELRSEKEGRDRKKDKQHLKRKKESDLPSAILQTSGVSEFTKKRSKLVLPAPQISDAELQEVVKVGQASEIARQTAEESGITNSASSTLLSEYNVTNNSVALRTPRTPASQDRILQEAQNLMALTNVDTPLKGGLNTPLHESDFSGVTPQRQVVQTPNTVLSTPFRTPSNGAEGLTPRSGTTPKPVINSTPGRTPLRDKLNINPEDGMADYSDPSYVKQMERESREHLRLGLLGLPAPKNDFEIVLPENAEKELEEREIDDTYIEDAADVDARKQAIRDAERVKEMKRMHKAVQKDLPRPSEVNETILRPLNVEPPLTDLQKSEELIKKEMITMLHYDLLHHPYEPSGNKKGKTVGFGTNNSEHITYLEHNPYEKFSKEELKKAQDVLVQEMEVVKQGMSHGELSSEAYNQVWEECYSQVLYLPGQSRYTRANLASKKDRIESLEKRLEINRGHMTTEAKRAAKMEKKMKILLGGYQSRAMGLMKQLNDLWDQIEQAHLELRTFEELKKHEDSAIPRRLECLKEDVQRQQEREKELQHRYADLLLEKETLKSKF
UniProt Q96SI9: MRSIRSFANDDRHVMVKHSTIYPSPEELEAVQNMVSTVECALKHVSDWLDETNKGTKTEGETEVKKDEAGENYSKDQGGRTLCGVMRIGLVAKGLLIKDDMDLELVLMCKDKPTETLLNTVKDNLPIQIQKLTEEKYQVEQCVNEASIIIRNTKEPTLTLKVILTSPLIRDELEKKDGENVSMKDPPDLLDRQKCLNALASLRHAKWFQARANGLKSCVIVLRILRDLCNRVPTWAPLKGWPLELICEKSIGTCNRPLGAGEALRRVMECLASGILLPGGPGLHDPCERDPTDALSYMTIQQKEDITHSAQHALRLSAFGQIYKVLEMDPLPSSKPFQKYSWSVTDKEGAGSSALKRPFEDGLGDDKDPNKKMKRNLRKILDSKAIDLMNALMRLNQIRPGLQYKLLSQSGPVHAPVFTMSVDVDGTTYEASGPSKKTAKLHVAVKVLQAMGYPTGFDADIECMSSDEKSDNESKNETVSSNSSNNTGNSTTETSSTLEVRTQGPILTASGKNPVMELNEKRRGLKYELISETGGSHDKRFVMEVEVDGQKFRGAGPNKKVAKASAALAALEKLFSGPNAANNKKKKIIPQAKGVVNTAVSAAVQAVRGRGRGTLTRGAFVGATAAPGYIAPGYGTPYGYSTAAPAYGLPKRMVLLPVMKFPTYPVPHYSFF
UniProt Q9BQ69: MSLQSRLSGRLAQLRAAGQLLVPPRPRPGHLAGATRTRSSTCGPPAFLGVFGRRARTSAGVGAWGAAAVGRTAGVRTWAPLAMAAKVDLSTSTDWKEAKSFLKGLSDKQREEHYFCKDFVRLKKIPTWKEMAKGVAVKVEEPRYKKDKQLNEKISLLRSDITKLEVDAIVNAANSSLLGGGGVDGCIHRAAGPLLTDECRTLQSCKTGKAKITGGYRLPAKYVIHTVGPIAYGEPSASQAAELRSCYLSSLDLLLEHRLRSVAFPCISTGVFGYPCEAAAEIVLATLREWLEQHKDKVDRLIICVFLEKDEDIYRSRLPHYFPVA
UniProt Q96QR8: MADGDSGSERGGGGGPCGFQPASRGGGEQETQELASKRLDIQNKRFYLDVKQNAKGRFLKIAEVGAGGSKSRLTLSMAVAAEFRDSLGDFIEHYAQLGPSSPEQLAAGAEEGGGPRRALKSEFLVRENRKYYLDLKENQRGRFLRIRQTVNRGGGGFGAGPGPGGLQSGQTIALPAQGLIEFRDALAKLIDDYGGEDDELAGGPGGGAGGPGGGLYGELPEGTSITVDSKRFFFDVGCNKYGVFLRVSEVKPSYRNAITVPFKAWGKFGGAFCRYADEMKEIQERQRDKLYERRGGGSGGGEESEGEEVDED
UniProt Q96S15: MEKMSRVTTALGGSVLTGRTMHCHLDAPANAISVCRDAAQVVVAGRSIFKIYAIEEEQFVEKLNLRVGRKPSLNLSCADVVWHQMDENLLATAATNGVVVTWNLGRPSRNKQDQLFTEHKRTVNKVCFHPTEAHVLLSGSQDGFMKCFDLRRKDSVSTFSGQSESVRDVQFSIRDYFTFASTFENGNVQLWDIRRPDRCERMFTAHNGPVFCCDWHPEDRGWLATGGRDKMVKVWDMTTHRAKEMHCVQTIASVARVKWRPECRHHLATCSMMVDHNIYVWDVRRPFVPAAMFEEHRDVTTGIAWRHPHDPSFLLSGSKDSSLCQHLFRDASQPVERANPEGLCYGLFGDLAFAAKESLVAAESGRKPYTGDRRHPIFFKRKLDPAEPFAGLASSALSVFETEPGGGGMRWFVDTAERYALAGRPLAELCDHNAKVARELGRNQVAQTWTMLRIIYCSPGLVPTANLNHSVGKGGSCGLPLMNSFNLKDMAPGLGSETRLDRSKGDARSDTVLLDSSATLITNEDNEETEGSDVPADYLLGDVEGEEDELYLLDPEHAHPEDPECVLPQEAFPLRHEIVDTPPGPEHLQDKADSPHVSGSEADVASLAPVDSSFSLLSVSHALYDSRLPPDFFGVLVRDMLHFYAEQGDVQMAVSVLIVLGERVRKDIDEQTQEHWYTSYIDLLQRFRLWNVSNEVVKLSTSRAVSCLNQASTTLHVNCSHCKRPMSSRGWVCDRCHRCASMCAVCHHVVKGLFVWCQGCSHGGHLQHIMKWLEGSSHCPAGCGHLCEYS
UniProt Q99704: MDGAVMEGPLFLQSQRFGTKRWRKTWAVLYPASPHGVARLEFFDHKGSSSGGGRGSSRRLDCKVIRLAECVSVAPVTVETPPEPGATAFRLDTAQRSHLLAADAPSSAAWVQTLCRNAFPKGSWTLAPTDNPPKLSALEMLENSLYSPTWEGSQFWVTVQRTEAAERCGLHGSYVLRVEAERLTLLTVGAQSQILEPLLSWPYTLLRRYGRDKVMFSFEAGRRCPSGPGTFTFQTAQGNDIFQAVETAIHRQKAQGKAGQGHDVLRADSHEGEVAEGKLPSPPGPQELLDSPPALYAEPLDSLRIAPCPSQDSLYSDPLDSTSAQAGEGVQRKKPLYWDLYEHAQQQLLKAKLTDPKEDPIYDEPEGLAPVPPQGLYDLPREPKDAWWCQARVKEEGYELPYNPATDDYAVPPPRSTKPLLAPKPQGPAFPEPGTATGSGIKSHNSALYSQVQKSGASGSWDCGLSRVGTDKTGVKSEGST
UniProt Q96I24: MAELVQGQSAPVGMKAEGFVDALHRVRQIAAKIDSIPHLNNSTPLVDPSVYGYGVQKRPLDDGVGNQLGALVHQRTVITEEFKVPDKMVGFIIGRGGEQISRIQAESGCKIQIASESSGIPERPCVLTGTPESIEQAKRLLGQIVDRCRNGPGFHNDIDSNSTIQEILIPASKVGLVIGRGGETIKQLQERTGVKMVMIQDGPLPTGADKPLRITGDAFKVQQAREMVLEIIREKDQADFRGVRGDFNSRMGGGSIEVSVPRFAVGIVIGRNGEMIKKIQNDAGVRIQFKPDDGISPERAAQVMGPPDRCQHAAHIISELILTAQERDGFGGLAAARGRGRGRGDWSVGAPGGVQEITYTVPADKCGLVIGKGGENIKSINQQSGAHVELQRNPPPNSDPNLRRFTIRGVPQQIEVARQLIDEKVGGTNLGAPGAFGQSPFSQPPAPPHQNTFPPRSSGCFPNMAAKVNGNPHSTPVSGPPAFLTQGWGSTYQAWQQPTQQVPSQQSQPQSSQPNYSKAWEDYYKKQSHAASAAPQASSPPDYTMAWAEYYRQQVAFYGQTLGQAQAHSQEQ
UniProt Q96KQ7: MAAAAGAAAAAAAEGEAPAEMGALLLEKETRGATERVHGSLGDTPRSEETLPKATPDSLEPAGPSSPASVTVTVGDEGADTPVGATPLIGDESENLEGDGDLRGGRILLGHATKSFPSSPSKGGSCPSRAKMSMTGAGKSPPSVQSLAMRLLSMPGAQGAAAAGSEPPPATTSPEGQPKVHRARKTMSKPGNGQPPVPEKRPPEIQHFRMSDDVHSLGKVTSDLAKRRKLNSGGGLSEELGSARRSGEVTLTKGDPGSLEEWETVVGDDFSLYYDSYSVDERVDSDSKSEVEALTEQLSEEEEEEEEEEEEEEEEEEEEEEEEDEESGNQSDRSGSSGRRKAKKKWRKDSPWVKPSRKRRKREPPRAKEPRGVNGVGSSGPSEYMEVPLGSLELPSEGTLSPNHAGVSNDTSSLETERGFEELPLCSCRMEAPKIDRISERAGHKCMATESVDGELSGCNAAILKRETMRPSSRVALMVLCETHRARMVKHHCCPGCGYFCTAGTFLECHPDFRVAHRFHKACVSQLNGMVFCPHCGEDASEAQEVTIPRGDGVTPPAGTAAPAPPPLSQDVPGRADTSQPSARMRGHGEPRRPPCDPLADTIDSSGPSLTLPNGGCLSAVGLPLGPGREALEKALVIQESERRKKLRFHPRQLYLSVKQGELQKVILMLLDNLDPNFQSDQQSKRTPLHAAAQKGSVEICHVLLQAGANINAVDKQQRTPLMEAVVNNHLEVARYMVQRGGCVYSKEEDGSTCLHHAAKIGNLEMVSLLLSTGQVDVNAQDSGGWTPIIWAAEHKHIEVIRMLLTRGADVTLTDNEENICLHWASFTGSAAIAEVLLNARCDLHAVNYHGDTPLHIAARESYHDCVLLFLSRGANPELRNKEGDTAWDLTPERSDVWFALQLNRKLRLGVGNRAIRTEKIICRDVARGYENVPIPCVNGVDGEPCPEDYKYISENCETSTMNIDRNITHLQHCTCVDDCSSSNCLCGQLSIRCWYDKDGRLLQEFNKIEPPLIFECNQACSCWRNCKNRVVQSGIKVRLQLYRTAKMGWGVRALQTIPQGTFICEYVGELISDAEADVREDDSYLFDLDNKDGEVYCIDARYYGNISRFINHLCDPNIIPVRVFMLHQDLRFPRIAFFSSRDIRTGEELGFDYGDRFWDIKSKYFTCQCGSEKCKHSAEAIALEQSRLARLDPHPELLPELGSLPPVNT
UniProt Q99538: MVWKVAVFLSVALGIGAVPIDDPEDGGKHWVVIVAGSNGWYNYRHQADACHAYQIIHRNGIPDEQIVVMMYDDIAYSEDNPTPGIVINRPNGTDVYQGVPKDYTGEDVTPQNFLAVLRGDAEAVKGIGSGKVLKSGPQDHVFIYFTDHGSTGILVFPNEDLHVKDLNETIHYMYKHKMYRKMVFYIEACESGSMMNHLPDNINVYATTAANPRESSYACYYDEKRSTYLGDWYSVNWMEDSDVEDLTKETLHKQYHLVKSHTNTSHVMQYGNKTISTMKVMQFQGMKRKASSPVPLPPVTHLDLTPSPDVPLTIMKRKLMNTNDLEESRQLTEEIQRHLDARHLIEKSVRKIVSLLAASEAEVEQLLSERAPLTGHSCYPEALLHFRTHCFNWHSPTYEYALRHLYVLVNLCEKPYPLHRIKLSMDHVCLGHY
UniProt Q99757: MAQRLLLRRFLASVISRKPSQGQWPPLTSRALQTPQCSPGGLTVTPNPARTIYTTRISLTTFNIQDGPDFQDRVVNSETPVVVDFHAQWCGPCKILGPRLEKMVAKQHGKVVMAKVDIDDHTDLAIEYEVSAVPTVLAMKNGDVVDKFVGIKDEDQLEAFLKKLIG

The targets below were run with COC(=O)/C=C/c1ccccc1 [methyl cinnamate] (assay: log2 ratio of iodoacetamide-alkyne labeling of the cysteine site, DMSO over compound (competition); higher = stronger covalent engagement of the cysteine by the compound, active = 1 or more). Conditions: 500 µM; treatment time 1 h; system: HEK293T cell lysate.
In short: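 Reporter intensities give each cysteine's log2 competition ratio as the mean of control channels over the mean of compound channels. The samples were HEK293T lysate (2 mg/mL) given vehicle or electrophile (500 µM, 1 h, ambient temperature), then iodoacetamide alkyne (1 h), followed by click coupling to sCIP-TMT reagents, pooling, trypsin digestion overnight at 37 °C, streptavidin enrichment, acid elution, Orbitrap Eclipse LC-MS/MS with FAIMS and FragPipe quantification. Duplicate channels and three replicates were run, and cysteines quantified in only one replicate were discarded.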
For ARAP1 C900 (UniProt Q96P48), the “log2 ratio of iodoacetamide-alkyne labeling” value (shortened to “log2 ratio”) was inactive: 0.203. VRK1 C50 (UniProt Q99986) was tested, and the “log2 ratio” value was inactive: 0.00473. In the case of NSD1 C1312 (UniProt Q96L73), the “log2 ratio” value is reported as inactive: 0.257. With VPS35 C653 (UniProt Q96QK1) the “log2 ratio” value was inactive: 0.167. With CNN2 C175 (UniProt Q99439) the “log2 ratio” value was inactive: 0.466. In the case of MYBBP1A C1046 (UniProt Q9BQG0), the “log2 ratio” value is reported as inactive: 0.215. For HSD17B10 C58 (UniProt Q99714), the “log2 ratio” value was inactive: 0.149. With MMS19 C386 (UniProt Q96T76) the “log2 ratio” value was inactive: 0.0911. For USP28 C142 (UniProt Q96RU2), the “log2 ratio” value was inactive: 0.386. With SPEN C877 (UniProt Q96T58) the “log2 ratio” value was inactive: 0.289. For UHRF1 C512 (UniProt Q96T88), the “log2 ratio” value was inactive: 0.119. SPEN C3632 (UniProt Q96T58) was tested, and the “log2 ratio” value was inactive: 0.0021. In the case of CDC5L C769 (UniProt Q99459), the “log2 ratio” value is reported as inactive: 0.111. For STRBP C195 (UniProt Q96SI9), the “log2 ratio” value was inactive: 0.109. With GRWD1 C299 (UniProt Q9BQ67) the “log2 ratio” value was active: 1.02. DNAJC7 C7 (UniProt Q99615) was tested, and the “log2 ratio” value was inactive: -0.0174. For CCT7 C326 (UniProt Q99832), the “log2 ratio” value was inactive: 0.129. RANBP9 C719 (UniProt Q96S59) was tested, and the “log2 ratio” value was inactive: 0.173. For MACROD1 C186 (UniProt Q9BQ69), the “log2 ratio” value was inactive: 0.0422. With PURB C17 (UniProt Q96QR8) the “log2 ratio” value was inactive: 0.405. With UHRF1 C762 (UniProt Q96T88) the “log2 ratio” value was inactive: 0.0265. For DOCK7 C457 (UniProt Q96N67), the “log2 ratio” value was inactive: 0.112. In the case of WDR24 C587 (UniProt Q96S15), the “log2 ratio” value is reported as inactive: -0.061. UniProt Q96PU8_C35 was tested, and the “log2 ratio” value was inactive: 0.091. In the case of TMEM209 C301 (UniProt Q96SK2), the “log2 ratio” value is reported as inactive: 0.288. PSMB7 C86 (UniProt Q99436) was tested, and the “log2 ratio” value was inactive: -0.0345. With SIN3A C486 (UniProt Q96ST3) the “log2 ratio” value was inactive: 0.358. For SMG1 C2304 (UniProt Q96Q15), the “log2 ratio” value was inactive: 0.111. DOK1 C224 (UniProt Q99704) was tested, and the “log2 ratio” value was inactive: -0.0928. For FUBP3 C310 (UniProt Q96I24), the “log2 ratio” value was inactive: -0.108. With IWS1 C749 (UniProt Q96ST2) the “log2 ratio” value was inactive: 0.341. For NSD1 C1689 (UniProt Q96L73), the “log2 ratio” value was inactive: -0.0767. With DOCK7 C1944 (UniProt Q96N67) the “log2 ratio” value was inactive: 0.233. For EHMT2 C596 (UniProt Q96KQ7), the “log2 ratio” value was inactive: -0.0532. RANBP9 C678 (UniProt Q96S59) was tested, and the “log2 ratio” value was inactive: 0.319. LGMN C219 (UniProt Q99538) was tested, and the “log2 ratio” value was inactive: 0.313. In the case of TXN2 C90 (UniProt Q99757), the “log2 ratio” value is reported as inactive: 0.0692.
